Measurements as given in publication PMC5460901.

How the values were obtained:
[1] = target: T1, Receptor-transporting protein RTP2, Flag-tagged (UniProt Q80ZI2); experiment: co-IP; HEK293T cells co-transfected; lysis in 50 mM Tris pH 7.4, 150 mM NaCl, 1% NP-40; lysate on anti-Flag M2 affinity gel overnight at 4 °C; HA-tagged proteins detected by anti-HA blot
T1 sequence: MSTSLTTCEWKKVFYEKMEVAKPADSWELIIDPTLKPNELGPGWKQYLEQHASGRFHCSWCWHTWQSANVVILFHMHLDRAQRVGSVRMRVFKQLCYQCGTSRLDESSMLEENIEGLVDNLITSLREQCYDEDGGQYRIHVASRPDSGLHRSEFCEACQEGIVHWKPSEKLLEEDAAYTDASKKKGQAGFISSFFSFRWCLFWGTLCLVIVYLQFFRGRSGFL

[2] = target: Receptor-transporting protein RTP1S, HA-tagged; experiment: co-IP; HEK293T cells co-transfected; lysis in 50 mM Tris pH 7.4, 150 mM NaCl, 1% NP-40; lysate on anti-HA affinity matrix overnight at 4 °C; Flag-tagged proteins detected by anti-Flag blot

binding [1]: binds
Molecule: Receptor-transporting protein RTP1S, HA-tagged

binding [2]: binds
B1: Receptor-transporting protein RTP2, Flag-tagged (protein, UniProt Q80ZI2 1-223)
chain: T1 sequence

These are yes or no findings as the source states them, for the method shown. Binding seen in cells or lysates may run through a third protein. A result given as binding can be weak or reduced; the word gives no strength. Sequences can lack the tags named with a protein. One block for each molecule: values may come before it.
